Consider one molecule from ChEMBL document CHEMBL4673273, “Development of autotaxin inhibitors: A series of tetrazole cinnamides” (Bioorg Med Chem Lett, 2021).

Molecules are shown by their SMILES.

The data set is described as follows: Passive Permeability of the compound across artificial membrane assessed as fraction absorbed by PAMPA assay. (The PAMPA barrier holds no transporters, so it reflects passive diffusion.)

For `Cc1nnn(Cc2cc(C(F)(F)F)ccc2/C=C/C(=O)N2CCC(C(F)(F)F)CC2)n1`, the Fa was 89%.
